# Results from paper PMC9537338.
# Results are given in words; binding and its absence hold for the method and conditions named. In cells and extracts the contact can be indirect. Some binding calls cover weakened binding; strength is not graded here.
# T1: SMAD4 (human (endogenous in HUVEC)), Q13485
# T1 chain: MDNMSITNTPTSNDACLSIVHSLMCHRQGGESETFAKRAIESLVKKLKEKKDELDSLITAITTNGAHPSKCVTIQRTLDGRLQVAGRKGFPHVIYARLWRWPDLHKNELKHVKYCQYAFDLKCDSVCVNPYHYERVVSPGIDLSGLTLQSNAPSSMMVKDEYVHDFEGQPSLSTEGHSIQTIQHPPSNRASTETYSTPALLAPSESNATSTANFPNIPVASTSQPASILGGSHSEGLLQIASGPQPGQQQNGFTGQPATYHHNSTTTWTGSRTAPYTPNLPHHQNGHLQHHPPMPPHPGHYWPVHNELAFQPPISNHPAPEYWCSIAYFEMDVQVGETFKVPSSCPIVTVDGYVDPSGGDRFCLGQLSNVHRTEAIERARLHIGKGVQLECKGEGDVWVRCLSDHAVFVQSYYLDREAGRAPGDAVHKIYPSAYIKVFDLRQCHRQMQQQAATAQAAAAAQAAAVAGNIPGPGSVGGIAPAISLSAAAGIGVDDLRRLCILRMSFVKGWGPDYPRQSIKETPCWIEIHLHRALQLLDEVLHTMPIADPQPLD
# Biological target: T1, SMAD4 (human (endogenous in HUVEC)), …
# Experiment: co-IP; SMAD4 complexes isolated with the Pierce Co-Immunoprecipitation Kit from HUVEC-FUCCI sorted into early G1 or late G1 and treated with control, TGF-β1 (1 ng/mL) or BMP4 (5 ng/mL) for 2 h; Western blot for SMAD proteins
# Conditions: remark: other sources report otherwise
row,binding,Binder
1,binds,"SMAD3, P84022 1-425 (protein) MSSILPFTPPIVKRLLGWKKGEQNGQEEKWCEKAVKSLVKKLKKTGQLDELEKAITTQNVNTKCITIPRSLDGRLQVSHRKGLPHVIYCRLWRWPDLHSHHELRAMELCEFAFNMKKDEVCVNPYHYQRVETPVLPPVLVPRHTEIPAEFPPLDDYSHSIPENTNFPAGIEPQSNIPETPPPGYLSEDGETSDHQMNHSMDAGSPNLSPNPMSPAHNNLDLQPVTYCEPAFWCSISYYELNQRVGETFHASQPSMTVDGFTDPSNSERFCLGLLSNVNRNAAVELTRRHIGRGVRLYYIGGEVFAECLSDSAIFVQSPNCNQRYGWHPATVCKIPPGCNLKIFNNQEFAALLAQSVNQGFEAVYQLTRMCTIRMSFVKGWGAEYRRQTVTSTPCWIELHLNGPLQWLDKVLTQMGSPSIRCSSVS"
2,binds,"SMAD2, Q15796 1-467 (protein) MSSILPFTPPVVKRLLGWKKSAGGSGGAGGGEQNGQEEKWCEKAVKSLVKKLKKTGRLDELEKAITTQNCNTKCVTIPSTCSEIWGLSTPNTIDQWDTTGLYSFSEQTRSLDGRLQVSHRKGLPHVIYCRLWRWPDLHSHHELKAIENCEYAFNLKKDEVCVNPYHYQRVETPVLPPVLVPRHTEILTELPPLDDYTHSIPENTNFPAGIEPQSNYIPETPPPGYISEDGETSDQQLNQSMDTGSPAELSPTTLSPVNHSLDLQPVTYSEPAFWCSIAYYELNQRVGETFHASQPSLTVDGFTDPSNSERFCLGLLSNVNRNATVEMTRRHIGRGVRLYYIGGEVFAECLSDSAIFVQSPNCNQRYGWHPATVCKIPPGCNLKIFNNQEFAALLAQSVNQGFEAVYQLTRMCTIRMSFVKGWGAEYRRQTVTSTPCWIELHLNGPLQWLDKVLTQMGSPSVRCSSMS"
